These are yes or no findings as the source states them, for the method shown. Some entries that bind do so weakly or less than the wild type.
Molecular target: hypo-IL-18 (IL-18 tethered to IL-18BP by a flexible linker with a TEV site, 6xHis) (human)
Assay: BLI, binding to hypo-IL-18

B1: SA07a (antibody, human IgG1, V domains shown)
VH: EVQLQQSGPELVKPGASVKISCKASGYTFTDYYMNWVKQSHGKSLEWIGDINPNNGGTSYNQKFKGKATLTVDKSSNTAYMELRSLTSEDSAVYYCAREGVYSNYGGYFDYWGQGTTLTVSS
VL: QIVLTQSPALMSASPGEKVTMTCSASSSVSYMYWYQQKPRSSPKPWIYLTSNLASGVPARFSGSGSGTSYSLTISSMEAEDAATYYCQQWSSNPPTFGSGTKLEIK
  binding: binds
